# From the supplement of paper PMC6411743
# Sequences of proteins named here, by UniProt entry; tags and fusion partners are left off. A change or cut given only in a name is not applied to a line headed by its entry.
# UniProt P10109: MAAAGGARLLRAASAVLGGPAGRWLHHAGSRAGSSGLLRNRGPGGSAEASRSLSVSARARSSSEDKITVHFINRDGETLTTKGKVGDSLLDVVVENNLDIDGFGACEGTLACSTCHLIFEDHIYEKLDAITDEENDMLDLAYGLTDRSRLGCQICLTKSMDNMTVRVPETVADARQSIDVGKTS
# UniProt P11233: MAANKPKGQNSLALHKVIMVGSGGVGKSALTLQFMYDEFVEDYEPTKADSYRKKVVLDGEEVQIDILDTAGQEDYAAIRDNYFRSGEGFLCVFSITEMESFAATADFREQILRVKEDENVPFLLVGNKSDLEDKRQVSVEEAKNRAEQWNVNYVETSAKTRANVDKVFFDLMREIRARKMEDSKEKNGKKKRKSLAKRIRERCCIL
# UniProt P16455, whole entry: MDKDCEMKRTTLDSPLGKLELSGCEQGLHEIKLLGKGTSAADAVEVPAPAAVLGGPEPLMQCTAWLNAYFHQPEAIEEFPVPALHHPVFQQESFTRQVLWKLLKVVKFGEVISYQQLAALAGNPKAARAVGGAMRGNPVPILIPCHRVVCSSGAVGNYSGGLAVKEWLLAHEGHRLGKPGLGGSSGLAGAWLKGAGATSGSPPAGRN
# UniProt P07686: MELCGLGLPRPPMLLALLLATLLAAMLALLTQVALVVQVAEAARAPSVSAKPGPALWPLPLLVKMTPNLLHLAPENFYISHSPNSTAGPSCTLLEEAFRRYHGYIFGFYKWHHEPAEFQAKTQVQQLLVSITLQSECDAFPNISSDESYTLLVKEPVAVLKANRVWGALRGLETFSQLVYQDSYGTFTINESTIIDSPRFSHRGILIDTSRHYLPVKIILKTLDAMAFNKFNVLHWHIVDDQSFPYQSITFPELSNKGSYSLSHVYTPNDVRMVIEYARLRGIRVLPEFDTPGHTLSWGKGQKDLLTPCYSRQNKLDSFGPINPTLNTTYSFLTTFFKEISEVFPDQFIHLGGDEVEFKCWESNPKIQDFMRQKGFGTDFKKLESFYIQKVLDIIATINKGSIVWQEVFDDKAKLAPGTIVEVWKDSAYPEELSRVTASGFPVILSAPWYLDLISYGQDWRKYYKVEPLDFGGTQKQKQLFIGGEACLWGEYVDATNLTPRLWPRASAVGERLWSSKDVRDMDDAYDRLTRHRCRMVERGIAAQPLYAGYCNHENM
# UniProt P17844: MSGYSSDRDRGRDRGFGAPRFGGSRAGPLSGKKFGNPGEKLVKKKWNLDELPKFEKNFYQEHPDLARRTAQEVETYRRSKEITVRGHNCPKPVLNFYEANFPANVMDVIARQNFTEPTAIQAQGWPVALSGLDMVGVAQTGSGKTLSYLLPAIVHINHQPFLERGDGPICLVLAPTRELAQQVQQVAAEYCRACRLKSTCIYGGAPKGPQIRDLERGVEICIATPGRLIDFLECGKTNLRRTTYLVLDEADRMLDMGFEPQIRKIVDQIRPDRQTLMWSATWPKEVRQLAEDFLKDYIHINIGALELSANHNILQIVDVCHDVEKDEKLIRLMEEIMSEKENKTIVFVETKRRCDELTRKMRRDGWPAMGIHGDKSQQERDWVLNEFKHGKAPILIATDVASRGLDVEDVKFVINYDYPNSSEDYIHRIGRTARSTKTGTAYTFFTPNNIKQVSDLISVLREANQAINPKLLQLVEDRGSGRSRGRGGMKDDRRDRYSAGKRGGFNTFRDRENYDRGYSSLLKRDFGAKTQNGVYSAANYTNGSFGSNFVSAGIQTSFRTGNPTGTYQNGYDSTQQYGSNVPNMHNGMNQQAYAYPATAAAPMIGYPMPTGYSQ
# UniProt P09874, whole entry: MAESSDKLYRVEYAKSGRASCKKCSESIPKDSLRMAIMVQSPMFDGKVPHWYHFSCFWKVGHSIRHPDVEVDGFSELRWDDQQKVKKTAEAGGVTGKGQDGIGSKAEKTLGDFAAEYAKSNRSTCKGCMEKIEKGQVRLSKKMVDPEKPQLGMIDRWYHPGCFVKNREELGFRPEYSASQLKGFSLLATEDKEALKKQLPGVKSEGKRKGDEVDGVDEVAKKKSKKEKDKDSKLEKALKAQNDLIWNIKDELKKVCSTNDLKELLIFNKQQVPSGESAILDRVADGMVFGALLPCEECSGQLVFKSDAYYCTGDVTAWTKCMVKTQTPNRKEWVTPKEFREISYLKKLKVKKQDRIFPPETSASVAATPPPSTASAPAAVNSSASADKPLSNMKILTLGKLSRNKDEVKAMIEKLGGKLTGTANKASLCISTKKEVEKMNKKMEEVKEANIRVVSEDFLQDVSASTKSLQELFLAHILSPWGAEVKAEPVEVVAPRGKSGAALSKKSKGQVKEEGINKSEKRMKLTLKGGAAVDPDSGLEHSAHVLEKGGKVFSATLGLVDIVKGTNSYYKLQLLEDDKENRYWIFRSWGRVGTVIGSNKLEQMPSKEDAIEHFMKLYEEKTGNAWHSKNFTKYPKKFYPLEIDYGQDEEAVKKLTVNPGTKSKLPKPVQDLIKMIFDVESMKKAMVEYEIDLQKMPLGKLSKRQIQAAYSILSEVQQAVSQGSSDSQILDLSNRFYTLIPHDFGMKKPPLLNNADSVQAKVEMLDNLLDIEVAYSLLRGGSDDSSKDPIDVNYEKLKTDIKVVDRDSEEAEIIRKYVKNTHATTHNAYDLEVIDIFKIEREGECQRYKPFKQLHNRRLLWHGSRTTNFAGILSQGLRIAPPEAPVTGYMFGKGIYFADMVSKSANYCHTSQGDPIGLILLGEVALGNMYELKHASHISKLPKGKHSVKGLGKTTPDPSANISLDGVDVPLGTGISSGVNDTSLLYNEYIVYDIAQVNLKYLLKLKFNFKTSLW
# UniProt P09564: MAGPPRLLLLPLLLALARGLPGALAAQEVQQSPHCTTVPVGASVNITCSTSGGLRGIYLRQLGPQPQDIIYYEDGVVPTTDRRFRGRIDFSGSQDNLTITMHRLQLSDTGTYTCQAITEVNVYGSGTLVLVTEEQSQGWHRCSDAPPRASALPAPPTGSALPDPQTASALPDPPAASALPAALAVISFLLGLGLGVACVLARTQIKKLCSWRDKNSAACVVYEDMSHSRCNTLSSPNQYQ
# UniProt P20338: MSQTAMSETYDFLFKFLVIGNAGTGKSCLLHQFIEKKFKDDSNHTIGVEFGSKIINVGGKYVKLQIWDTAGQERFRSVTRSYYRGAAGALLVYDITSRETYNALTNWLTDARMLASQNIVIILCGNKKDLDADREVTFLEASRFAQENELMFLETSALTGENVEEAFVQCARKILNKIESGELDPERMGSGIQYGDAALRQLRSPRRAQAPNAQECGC
# UniProt P09669, whole entry: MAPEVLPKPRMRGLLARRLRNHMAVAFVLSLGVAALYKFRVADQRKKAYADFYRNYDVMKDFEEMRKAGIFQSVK
# UniProt P10747, whole entry: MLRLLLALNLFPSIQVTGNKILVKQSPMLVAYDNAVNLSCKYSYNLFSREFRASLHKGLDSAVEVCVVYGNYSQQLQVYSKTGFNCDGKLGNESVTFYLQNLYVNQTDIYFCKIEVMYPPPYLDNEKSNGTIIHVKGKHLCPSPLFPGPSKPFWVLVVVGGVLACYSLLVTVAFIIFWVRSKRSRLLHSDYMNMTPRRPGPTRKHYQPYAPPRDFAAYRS
# UniProt P09417: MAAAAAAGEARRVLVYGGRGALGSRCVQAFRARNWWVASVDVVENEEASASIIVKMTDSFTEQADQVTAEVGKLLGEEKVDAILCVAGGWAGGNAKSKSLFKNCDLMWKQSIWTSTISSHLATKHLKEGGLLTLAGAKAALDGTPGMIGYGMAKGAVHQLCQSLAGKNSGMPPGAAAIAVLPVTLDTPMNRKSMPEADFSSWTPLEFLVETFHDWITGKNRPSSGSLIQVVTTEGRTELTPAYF
# UniProt P20340: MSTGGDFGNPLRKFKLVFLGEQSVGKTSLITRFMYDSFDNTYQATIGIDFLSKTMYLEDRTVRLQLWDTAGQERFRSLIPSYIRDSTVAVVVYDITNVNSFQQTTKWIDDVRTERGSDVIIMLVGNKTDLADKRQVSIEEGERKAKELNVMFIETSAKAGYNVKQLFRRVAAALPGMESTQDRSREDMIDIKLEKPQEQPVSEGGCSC
# UniProt P0C0S5, whole entry, looked up: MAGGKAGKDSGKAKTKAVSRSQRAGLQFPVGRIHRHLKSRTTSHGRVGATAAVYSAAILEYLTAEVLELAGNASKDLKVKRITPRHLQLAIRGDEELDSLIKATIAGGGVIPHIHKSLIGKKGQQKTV
# UniProt Q71UI9, whole entry, looked up: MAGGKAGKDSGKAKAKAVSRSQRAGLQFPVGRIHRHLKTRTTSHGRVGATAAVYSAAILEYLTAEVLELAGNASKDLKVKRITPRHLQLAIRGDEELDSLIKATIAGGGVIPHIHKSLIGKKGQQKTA
# UniProt P14649: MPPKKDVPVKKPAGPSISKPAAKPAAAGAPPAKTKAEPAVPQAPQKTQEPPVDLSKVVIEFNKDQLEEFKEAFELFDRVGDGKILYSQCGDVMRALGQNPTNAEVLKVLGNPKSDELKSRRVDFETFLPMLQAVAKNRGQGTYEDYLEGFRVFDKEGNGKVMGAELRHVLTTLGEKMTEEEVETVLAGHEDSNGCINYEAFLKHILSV
# UniProt P23443: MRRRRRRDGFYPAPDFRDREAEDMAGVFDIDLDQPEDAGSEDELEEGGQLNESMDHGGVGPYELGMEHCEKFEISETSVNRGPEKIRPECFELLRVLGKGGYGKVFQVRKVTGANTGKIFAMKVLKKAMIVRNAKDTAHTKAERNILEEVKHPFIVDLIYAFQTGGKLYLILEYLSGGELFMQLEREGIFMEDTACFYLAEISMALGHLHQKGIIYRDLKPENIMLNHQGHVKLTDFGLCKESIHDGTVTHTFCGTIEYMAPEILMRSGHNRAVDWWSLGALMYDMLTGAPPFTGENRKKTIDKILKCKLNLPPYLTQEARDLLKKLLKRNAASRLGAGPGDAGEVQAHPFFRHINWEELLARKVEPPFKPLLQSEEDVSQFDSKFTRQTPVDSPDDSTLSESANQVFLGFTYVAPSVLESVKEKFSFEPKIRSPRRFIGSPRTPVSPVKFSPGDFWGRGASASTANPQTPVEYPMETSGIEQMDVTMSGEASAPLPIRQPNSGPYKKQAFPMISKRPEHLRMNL
# UniProt P26038, whole entry: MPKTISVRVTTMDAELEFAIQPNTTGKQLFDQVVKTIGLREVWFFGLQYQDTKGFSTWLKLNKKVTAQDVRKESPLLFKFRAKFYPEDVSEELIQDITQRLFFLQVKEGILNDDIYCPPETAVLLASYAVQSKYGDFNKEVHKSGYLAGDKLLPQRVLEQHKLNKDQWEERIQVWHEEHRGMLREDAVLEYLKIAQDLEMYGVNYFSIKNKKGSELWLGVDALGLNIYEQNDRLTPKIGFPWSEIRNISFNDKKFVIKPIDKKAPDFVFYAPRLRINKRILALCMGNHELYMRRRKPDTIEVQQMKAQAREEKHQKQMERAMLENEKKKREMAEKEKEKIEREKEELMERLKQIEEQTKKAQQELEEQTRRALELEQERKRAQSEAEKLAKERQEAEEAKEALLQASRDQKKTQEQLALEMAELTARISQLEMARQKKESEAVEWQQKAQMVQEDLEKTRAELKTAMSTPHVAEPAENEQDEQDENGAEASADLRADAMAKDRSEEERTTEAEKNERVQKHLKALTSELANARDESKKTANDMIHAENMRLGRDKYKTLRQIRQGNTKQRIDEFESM
# UniProt P16615: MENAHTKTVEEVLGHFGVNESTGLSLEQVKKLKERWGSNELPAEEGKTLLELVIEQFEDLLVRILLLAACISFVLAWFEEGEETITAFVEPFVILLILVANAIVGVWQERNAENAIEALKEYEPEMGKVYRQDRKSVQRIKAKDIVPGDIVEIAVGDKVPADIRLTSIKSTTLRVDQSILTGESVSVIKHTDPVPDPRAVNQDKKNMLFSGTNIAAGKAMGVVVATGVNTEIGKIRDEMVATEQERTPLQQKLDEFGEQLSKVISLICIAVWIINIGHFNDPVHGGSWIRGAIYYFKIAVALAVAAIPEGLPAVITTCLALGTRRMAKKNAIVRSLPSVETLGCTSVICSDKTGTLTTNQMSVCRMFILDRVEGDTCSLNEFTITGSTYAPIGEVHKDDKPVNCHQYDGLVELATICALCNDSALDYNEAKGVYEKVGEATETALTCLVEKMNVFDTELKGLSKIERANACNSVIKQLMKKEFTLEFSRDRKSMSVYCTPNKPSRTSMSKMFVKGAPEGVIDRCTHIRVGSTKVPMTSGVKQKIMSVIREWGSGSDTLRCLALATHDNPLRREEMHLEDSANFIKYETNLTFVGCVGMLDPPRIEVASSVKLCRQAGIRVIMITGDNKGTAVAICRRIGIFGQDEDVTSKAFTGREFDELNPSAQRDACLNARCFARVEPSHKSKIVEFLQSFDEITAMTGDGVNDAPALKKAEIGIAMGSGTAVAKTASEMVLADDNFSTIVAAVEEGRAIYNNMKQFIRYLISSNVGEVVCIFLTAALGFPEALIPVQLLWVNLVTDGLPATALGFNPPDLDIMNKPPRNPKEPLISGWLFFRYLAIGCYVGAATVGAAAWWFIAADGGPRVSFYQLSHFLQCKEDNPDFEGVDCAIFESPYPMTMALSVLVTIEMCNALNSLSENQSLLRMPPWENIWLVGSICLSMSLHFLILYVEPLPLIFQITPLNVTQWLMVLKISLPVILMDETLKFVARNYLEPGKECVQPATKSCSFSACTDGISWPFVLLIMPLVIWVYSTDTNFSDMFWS
# ± gives the standard deviation of the averaged measurements. The list shows a part of the results.
# Compound: Nc1nc2c(ncn2[C@@H]2O[C@H](COP(=O)(O)OP(=O)(O)OP(=O)(O)O)[C@@H](O)[C@H]2O)c(=O)[nH]1 [guanosine triphosphate]
# Assay: NP40-soluble protein abundance relative to vehicle (solubility fold change) (ratio); higher = more soluble protein in presence of GTP
# How it was run: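 Eight concentrations, 0.1 to 10 mM, were tested on Jurkat crude lysate for 10 min at room temperature and then 3 min at 37 °C, in three independent experiments. The lysate was solubilised with 0.8% NP40 and benzonase, ultracentrifuged, and the supernatant TMT-labelled for LC-MS/MS. Each value is the fold change against the detergent-processed vehicle in its own replicate, from vsn-normalised intensities.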
Target,NP40-soluble protein abundance (concentration: 0.1mM),NP40-soluble protein abundance (concentration: 0.5mM),NP40-soluble protein abundance (concentration: 1mM),NP40-soluble protein abundance (concentration: 2mM),NP40-soluble protein abundance (concentration: 4mM),NP40-soluble protein abundance (concentration: 6mM),NP40-soluble protein abundance (concentration: 8mM),NP40-soluble protein abundance (concentration: 10mM)
UniProt P20073 and related entries,0.945 ± 0.019,0.897 ± 0.047,0.915 ± 0.058,0.895 ± 0.052,0.897 ± 0.046,0.884 ± 0.059,0.851 ± 0.09,0.876 ± 0.074
CAPN1 (UniProt P07384),1.04 ± 0.062,1.04 ± 0.05,0.94 ± 0.031,0.949 ± 0.066,0.945 ± 0.059,0.926 ± 0.036,0.91 ± 0.064,0.868 ± 0.094
FDX1 (UniProt P10109),0.939 ± 0.088,0.94 ± 0.098,0.875 ± 0.065,0.872 ± 0.094,0.87 ± 0.11,0.857 ± 0.074,0.843 ± 0.11,0.859 ± 0.12
GALT (UniProt P07902),0.957 ± 0.091,0.933 ± 0.14,0.94 ± 0.081,0.927 ± 0.1,0.939 ± 0.12,0.905 ± 0.12,0.925 ± 0.039,0.888 ± 0.12
ADH5 (UniProt P11766),0.976 ± 0.048,0.97 ± 0.041,0.899 ± 0.029,0.8934 ± 0.0078,0.883 ± 0.019,0.8828 ± 0.0086,0.858 ± 0.051,0.838 ± 0.053
RALA (UniProt P11233),0.9 ± 0.049,0.964 ± 0.021,0.932 ± 0.044,0.895 ± 0.04,0.858 ± 0.08,0.915 ± 0.052,0.883 ± 0.031,0.88 ± 0.05
UniProt P07737 and related entries,0.925 ± 0.13,0.909 ± 0.095,0.927 ± 0.13,0.858 ± 0.096,0.866 ± 0.12,0.842 ± 0.099,0.857 ± 0.11,0.862 ± 0.11
GLUL (UniProt P15104),1.01 ± 0.011,1.03 ± 0.036,1.01 ± 0.028,1 ± 0.041,1.02 ± 0.07,1.03 ± 0.059,1.04 ± 0.073,0.993 ± 0.054
P0DN76 and related entries (UniProt Q01081+P0DN76),1.23 ± 0.074,1.61 ± 0.28,1.64 ± 0.32,1.67 ± 0.32,1.71 ± 0.36,1.78 ± 0.4,1.79 ± 0.45,1.76 ± 0.38
MGMT (UniProt P16455),0.912 ± 0.037,0.896 ± 0.027,1 ± 0.027,0.977 ± 0.045,0.955 ± 0.033,0.945 ± 0.039,0.918 ± 0.088,0.984 ± 0.034
HEXB (UniProt P07686),0.984 ± 0.044,0.953 ± 0.018,0.982 ± 0.026,0.936 ± 0.057,0.945 ± 0.032,0.937 ± 0.051,0.939 ± 0.036,0.908 ± 0.062
UniProt P17844 and related entries,1.02 ± 0.043,1.04 ± 0.05,1 ± 0.033,1.08 ± 0.043,1.19 ± 0.016,1.23 ± 0.018,1.29 ± 0.036,1.32 ± 0.018
PARP1 (UniProt P09874),1.02 ± 0.026,1.05 ± 0.034,1.05 ± 0.033,1.15 ± 0.052,1.31 ± 0.069,1.43 ± 0.054,1.47 ± 0.043,1.5 ± 0.028
UniProt P09564,1.03 ± 0.2,0.908 ± 0.048,1.09 ± 0.19,0.942 ± 0.15,1.02 ± 0.13,0.977 ± 0.15,1 ± 0.17,0.932 ± 0.14
H2AFX (UniProt P16104),0.94 ± 0.014,0.955 ± 0.036,1.07 ± 0.068,1.13 ± 0.075,1.2 ± 0.088,1.48 ± 0.16,1.44 ± 0.13,2.26 ± 0.46
RAB4A (UniProt P20338),0.901 ± 0.063,1 ± 0.098,0.866 ± 0.093,0.842 ± 0.1,0.772 ± 0.072,0.834 ± 0.092,0.757 ± 0.11,0.802 ± 0.15
HIST1H1D (UniProt P16402),0.894 ± 0.042,0.924 ± 0.044,1.02 ± 0.032,1.03 ± 0.038,1.15 ± 0.08,1.3 ± 0.14,1.22 ± 0.034,1.68 ± 0.049
UniProt P09543 and related entries,1.06 ± 0.042,1.1 ± 0.087,1.04 ± 0.051,1.02 ± 0.051,1.01 ± 0.02,0.992 ± 0.044,0.963 ± 0.018,0.921 ± 0.051
COX6C (UniProt P09669),0.927 ± 0.1,0.834 ± 0.12,0.988 ± 0.2,0.897 ± 0.15,0.88 ± 0.16,0.852 ± 0.16,0.745 ± 0.1,0.898 ± 0.15
UniProt P10747 and related entries,1 ± 0.1,0.959 ± 0.086,1.06 ± 0.13,1.02 ± 0.12,0.98 ± 0.15,1.01 ± 0.11,0.984 ± 0.14,0.986 ± 0.086
QDPR (UniProt P09417),1.04 ± 0.11,0.961 ± 0.11,0.973 ± 0.1,0.951 ± 0.068,0.998 ± 0.09,0.906 ± 0.092,0.909 ± 0.1,0.937 ± 0.099
UniProt P20340 and related entries,1.02 ± 0.04,0.998 ± 0.034,0.935 ± 0.032,0.922 ± 0.065,0.898 ± 0.08,0.891 ± 0.069,0.865 ± 0.073,0.847 ± 0.13
P0C0S5 and related entries (UniProt Q71UI9+P0C0S5),0.898 ± 0.042,0.919 ± 0.033,1.11 ± 0.065,1.11 ± 0.06,1.12 ± 0.06,1.25 ± 0.094,1.25 ± 0.079,1.57 ± 0.18
M6PR (UniProt P20645),0.88 ± 0.035,0.889 ± 0.053,0.923 ± 0.064,0.867 ± 0.081,0.855 ± 0.074,0.875 ± 0.091,0.854 ± 0.048,0.881 ± 0.053
UniProt P14649 and related entries,0.947 ± 0.091,0.976 ± 0.037,1.12 ± 0.12,1.08 ± 0.032,1.09 ± 0.056,1.11 ± 0.055,1.11 ± 0.1,1.23 ± 0.15
UniProt P23443 and related entries,0.989 ± 0.073,1.01 ± 0.05,0.898 ± 0.049,0.934 ± 0.028,0.908 ± 0.027,0.893 ± 0.035,0.89 ± 0.075,0.871 ± 0.081
NAGA (UniProt P17050),1.01 ± 0.033,0.9779 ± 0.0094,1 ± 0.034,0.977 ± 0.027,0.999 ± 0.02,0.939 ± 0.045,1.04 ± 0.081,0.965 ± 0.062
UniProt P26038 and related entries,0.942 ± 0.058,0.964 ± 0.055,0.921 ± 0.07,0.883 ± 0.084,0.851 ± 0.085,0.865 ± 0.08,0.883 ± 0.071,0.866 ± 0.086
UniProt P07954-2,0.94 ± 0.039,0.956 ± 0.039,0.916 ± 0.038,0.903 ± 0.034,0.873 ± 0.018,0.909 ± 0.028,0.89 ± 0.04,0.888 ± 0.047
ATP2A2 (UniProt P16615),1.02 ± 0.017,1.02 ± 0.037,0.956 ± 0.022,0.969 ± 0.018,0.964 ± 0.035,0.952 ± 0.036,0.951 ± 0.026,0.911 ± 0.023

# As a working copy, some entries already given.
Target,NP40-soluble protein abundance (concentration: 0.1mM),NP40-soluble protein abundance (concentration: 0.5mM),NP40-soluble protein abundance (concentration: 1mM),NP40-soluble protein abundance (concentration: 2mM),NP40-soluble protein abundance (concentration: 4mM),NP40-soluble protein abundance (concentration: 6mM),NP40-soluble protein abundance (concentration: 8mM),NP40-soluble protein abundance (concentration: 10mM)
COX6C (UniProt P09669),0.927 ± 0.1,0.834 ± 0.12,0.988 ± 0.2,0.897 ± 0.15,0.88 ± 0.16,0.852 ± 0.16,0.745 ± 0.1,0.898 ± 0.15
UniProt P10747 and related entries,1 ± 0.1,0.959 ± 0.086,1.06 ± 0.13,1.02 ± 0.12,0.98 ± 0.15,1.01 ± 0.11,0.984 ± 0.14,0.986 ± 0.086
